Results reported in article PMC11960914.
No constants are given. Whether binding was seen depends on the method and setting. Binding seen in cells or lysates may run through a third protein. Some entries that bind do so weakly or less than the wild type.

Sequences of proteins named here, by UniProt entry; tags and fusion partners are left off.
UniProt Q5XIH7: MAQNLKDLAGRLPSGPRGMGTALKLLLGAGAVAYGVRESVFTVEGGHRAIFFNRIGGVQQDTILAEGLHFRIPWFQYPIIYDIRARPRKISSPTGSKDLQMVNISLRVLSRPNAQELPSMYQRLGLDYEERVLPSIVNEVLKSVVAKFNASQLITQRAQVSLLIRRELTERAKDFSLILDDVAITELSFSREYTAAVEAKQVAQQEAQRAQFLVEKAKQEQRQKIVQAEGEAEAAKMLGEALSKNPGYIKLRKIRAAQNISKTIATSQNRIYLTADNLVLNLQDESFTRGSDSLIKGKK

Target: Prohibitin 2 (rat (endogenous in A7r5)) (UniProt Q5XIH7)
Test: co-IP; 500 ug cell lysate with anti-PHB2 antibody at 4°C for 2 h, then protein G Plus-Agarose at 4°C overnight; western blot for PHB1; control without the anti-PHB2 antibody; A7r5 cells, also treated with siPHB2

B1: Prohibitin 1 (protein, UniProt P67779 1-272)
chain: MAAKVFESIGKFGLALAVAGGVVNSALYNVDAGHRAVIFDRFRGVQDIVVGEGTHFLIPWVQKPIIFDCRSRPRNVPVITGSKDLQNVNITLRILFRPVASQLPRIYTSIGEDYDERVLPSITTEILKSVVARFDAGELITQRELVSRQVSDDLTERAATFGLILDDVSLTHLTFGKEFTEAVEAKQVAQQEAERARFVVEKAEQQKKAAIISAEGDSKAAELIANSLATAGDGLIELRKLEAAEDIAYQLSRSRNITYLPAGQSVLLQLPQ
binding: binds
